For at least one entry, the source does not settle the construct or the ends of the probe.

In the data set the test system is GST-GhTCP4-like (Gossypium hirsutum). Nature of the data set: EMSA. As to conditions: shift weakened by increasing unlabeled identical probe; Not given; Beyotime Chemiluminescent EMSA Kit, as in Jiao et al. 2020; recombinant protein; protein details: GST (pGEX6p-1); label: 5' biotin.

In the case of “CAACTAAAGAAGTATGGTGCCACTGATTACTCAAATAA (double strand) [GhICS1 promoter EMSA probe F2/R2]”, the binding result was “binds”.

With “AGATAACTACATATCGGTGCCACAGATTACTCAGACAG (double strand) [GhICS1 promoter EMSA probe F1/R1]”, the binding result is reported as “binds”.

The values are drawn from article PMC9164164.
